Test results taken from publication PMC3037912.

Target: T1, GST-annexin A6 fusion protein, full length (UniProt P48037)
T1 sequence: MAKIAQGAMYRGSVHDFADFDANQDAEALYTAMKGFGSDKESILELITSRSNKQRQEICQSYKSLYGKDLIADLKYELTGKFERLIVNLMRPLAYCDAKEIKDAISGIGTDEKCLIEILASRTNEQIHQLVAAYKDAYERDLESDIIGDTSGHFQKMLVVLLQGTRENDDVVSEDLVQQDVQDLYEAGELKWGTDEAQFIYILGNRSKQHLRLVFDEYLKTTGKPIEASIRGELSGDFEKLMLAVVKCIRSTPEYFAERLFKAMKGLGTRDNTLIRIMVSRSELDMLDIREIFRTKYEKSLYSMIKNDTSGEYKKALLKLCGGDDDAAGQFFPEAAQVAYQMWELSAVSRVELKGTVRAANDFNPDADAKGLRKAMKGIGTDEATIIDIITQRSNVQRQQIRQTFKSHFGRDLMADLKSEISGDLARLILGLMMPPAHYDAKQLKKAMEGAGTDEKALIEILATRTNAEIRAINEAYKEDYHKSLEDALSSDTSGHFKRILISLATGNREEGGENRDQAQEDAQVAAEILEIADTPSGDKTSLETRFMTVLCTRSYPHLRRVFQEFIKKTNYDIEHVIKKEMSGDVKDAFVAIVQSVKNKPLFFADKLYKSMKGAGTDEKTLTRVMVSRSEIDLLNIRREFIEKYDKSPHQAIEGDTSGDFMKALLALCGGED
Test: affinity purification with mass spectrometry; GST-AnxA6 on glutathione-sepharose 4B beads incubated with 1.5 mg NP-40 solubilised rat whole heart homogenate, 4°C, 5 hours; bound proteins eluted, separated by 12% SDS-PAGE, LC MS/MS; only the target purified

## sarcomeric alpha-actinin (rat (endogenous in heart homogenate))
  binding: binds

Results are given in words; binding and its absence hold for the method and conditions named. In cells and extracts the contact can be indirect. Here binding means that the protein was enriched with, or labelled near, the bait; the list need not be complete. Where a sequence is shown, tags or fusion partners need not be part of it.
